Measurements: the supplement of paper PMC12889115
The other results are listed elsewhere or left out. These are raw signals, not scaled to a control.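 First-pass screen: polymyxin B was added at a level that permeabilizes the Salmonella outer membrane while sparing the inner membrane. DMSO wells, with and without polymyxin B, defined maximum growth. Because plates differed from one another, each plate's data were ranked separately and the compounds with the lowest OD600 were carried forward as hits.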

System: Salmonella enterica serovar Typhimurium SL1344
Experiment: bacterial growth OD600 after 18 h with compound and polymyxin B; higher = more bacterial growth (less inhibition)
Conditions: 50 µM, Mueller-Hinton broth

| Structure (SMILES) | bacterial growth OD600 (polymyxin B 1 µg/mL) | bacterial growth OD600 (polymyxin B 0.75 µg/mL) |
| --- | --- | --- |
| Cc1ccc(-n2cccn2)c([C@@H]2C[C@H]3CN(C4CCCC4)C(=O)[C@]34CCCN24)c1 | 0.001 | – |
| O=C(CCC1CCCN(Cc2ccc3c(c2)OCCO3)C1)Nc1ccccc1F (configuration not stated) | 0.947 | – |
| COc1ccccc1C(=O)N[C@@H]1c2ccccc2C2(CCN(C(=O)c3cccc(C)n3)CC2)[C@H]1OC | – | 0.861 |
| Cc1cc(OCc2cc(C(=O)N(C)Cc3cnccn3)no2)cc(C)c1Cl | 0.891 | – |
| O=C(c1cnccn1)N1CCCC(CCc2ccccc2)C1 (configuration not stated) | – | 0.92 |
| Cc1nn(C)c(C)c1C(C)NC(=O)c1ccc(OC2CCN(C(=O)C3CC3)CC2)cc1 (configuration not stated) | 0.931 | – |
| COCC1CCN(C(=O)c2cc(Cn3cnc4ccccc43)[nH]n2)CC1 | 1.24 | – |
| Cc1ccc(C)c(-n2cc(CN3CCC(O)CC3)c(-c3ccccc3)n2)c1 | 0.873 | – |
| Cc1cccnc1CN1CCN(C(=O)c2cn(CCC3CCCCC3)nn2)CC1 | 0.835 | – |
| CCOC(=O)CCNc1ccc(-c2nc(Cc3ccccc3)no2)cn1 | – | 0.432 |
| Cc1nc(CC(=O)N(Cc2ccncc2)Cc2cccc(OCCc3ccc(F)cc3)c2)cs1 | – | -0.001 |
| COc1ccc(CCN2CCCC(CN(C)Cc3cc(OC)c(O)cc3Cl)C2)cc1 (configuration not stated) | – | 0.834 |
| Fc1cccc(CN2CCC(C3CCN(CCCn4cccn4)C3)CC2)c1F (configuration not stated) | – | 0.761 |
| C=CCCC(=O)N1CCCC(Nc2ccc(F)c(F)c2)C1 (configuration not stated) | 0.888 | – |
| Cc1ccc2c(c1)CN(C(=O)c1ccc(N3CCOCC3)cc1)CC(c1ccsc1)O2 (configuration not stated) | – | 0.004 |
| Cc1cc(C(=O)N2CCC3(CCCN(CCC4CCCCC4)C3)C2)nn1C (configuration not stated) | 0.897 | – |

Given with bars between the fields: two of the compounds above
Structure (SMILES) | bacterial growth OD600 (polymyxin B 1 µg/mL) | bacterial growth OD600 (polymyxin B 0.75 µg/mL)
Cc1cc(OCc2cc(C(=O)N(C)Cc3cnccn3)no2)cc(C)c1Cl | 0.891 | –
Cc1nc(CC(=O)N(Cc2ccncc2)Cc2cccc(OCCc3ccc(F)cc3)c2)cs1 | – | -0.001

(continued)

| Structure (SMILES) | bacterial growth OD600 (polymyxin B 1 µg/mL) | bacterial growth OD600 (polymyxin B 0.75 µg/mL) |
| --- | --- | --- |
| O=C(c1ccoc1)N1CCC2(CCCN(Cc3ccc(F)cc3)C2=O)C1 (configuration not stated) | 0.934 | – |
| CCn1cc(C(=O)N2CCCC(C(=O)c3ccc4c5c(cccc35)CC4)C2)cn1 (configuration not stated) | 0.566 | – |
| COc1ccc(-c2nn(-c3ccccc3)cc2CNC(C)Cn2cncn2)c(F)c1 (configuration not stated) | 0.771 | – |
| CC(C)c1nccn1Cc1cc(C(=O)NCc2cc(F)ccc2F)n[nH]1 | – | 0.965 |
| COc1ccc(CC2(CCC(=O)NCc3cccc(C(F)(F)F)c3)CCC(=O)N2)cc1OC (configuration not stated) | – | 0.753 |
| OCCOc1cccc(CN2CCOc3ccc(C(O)Cc4ccccc4)cc3C2)c1 (configuration not stated) | – | 0.782 |
| O=C(Cn1cnnn1)N1CCCC(N2CCN(c3cccc(C(F)(F)F)c3)CC2)C1 (configuration not stated) | 0.893 | – |
| OCC1(Cc2ccccc2Cl)CCN(Cc2cccn2-c2ccccn2)CC1 | 0.922 | – |
| CN(Cc1ccccc1)Cc1cc(C(=O)NCc2ncc[nH]2)no1 | 1.05 | – |
| CCC1CN(Cc2cccc(C)n2)Cc2cc(OC)ccc2O1 (configuration not stated) | – | 0.841 |
| CCOC(=O)C1(Cc2ccccc2C)CCCN(C(=O)c2ccccn2)C1 (configuration not stated) | 0.776 | – |
| COc1ccccc1CCC(=O)N1CCCC(C(=O)c2cccc3ccccc23)C1 (configuration not stated) | 0.52 | – |
| COCc1ccc(C(=O)Nc2ccc(-c3nc(CNC(=O)Cn4nc(C)cc4C)c(C)o3)cc2)o1 | – | 0.818 |
| CN(C(=O)CC(c1ccc(O)cc1)c1cccc(O)c1)C1CCOCC1 (configuration not stated) | 0.911 | – |
| COc1ccc(CCNC2CCN(c3nc(C)c4ccc(S(C)(=O)=O)cc4n3)CC2)cc1OC | – | 0.8 |
| CC(C)/C=C/CN1CCOc2ccc(C(O)Cc3ccccc3)cc2C1 (configuration not stated) | – | 0.135 |
